Results published in the supplement of paper PMC4807443.
Structures can show the parent of a compound that is named as a salt. The list shows a part of the results. The numbers are fractions of the control, whatever unit the source prints. Most entries show no effect beyond the scatter of the controls.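 MIN6 is a mouse insulinoma beta-cell line that stably carries a lentiviral reporter in which the Pdx1 and Ins1 promoters each drive a nucleus-targeted fluorescent protein; cells were counted by automated imaging with a Hoechst nuclear stain. In the screen, a drug was a possible hit when its Ins1 promoter readout lay beyond two median absolute deviations from the DMSO controls while Pdx1 activity stayed near normal.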

Tested on: MIN6
Assay: % Pdx1+ Ins1-low (RFP-only, immature) cells relative to DMSO control (fold of DMSO control); higher = more immature Pdx1+/Ins1-low cells
Settings: 8.5 µM; 48 h; glucose 5 mM

| SMILES | % Pdx1+ Ins1-low |
| --- | --- |
| CCOC(=O)[C@H](CCc1ccccc1)N[C@@H](C)C(=O)N1[C@H](C(=O)O)C[C@@H]2CCC[C@@H]21 [Ramipril] | 0.625 |
| NC(=O)c1ncn([C@@H]2O[C@H](CO)[C@@H](O)[C@H]2O)n1 [Ribavirin] | 0.396 |
| CN[C@H](CC(C)C)C(=O)N[C@H]1C(=O)N[C@@H](CC(N)=O)C(=O)N[C@H]2C(=O)N[C@H]3C(=O)N[C@H](C(=O)N[C@H](C(=O)O)c4cc(O)cc(O)c4-c4cc3ccc4O)[C@H](O)c3ccc(c(Cl)c3)Oc3cc2cc(c3O[C@@H]2O[C@H](CO)[C@@H](O)[C@H](O)[C@H]2O[C@H]2C[C@](C)(N)[C@H](O)[C@H](C)O2)Oc2ccc(cc2Cl)[C@H]1O [Vancomycin hydrochloride] | 0.776 |
| NS(=O)(=O)c1cc2c(cc1Cl)N=CNS2(=O)=O [Chlorothiazide] | 1.1 |
| Cc1cc(C2CCCCC2)n(O)c(=O)c1 [Ciclopirox ethanolamine] | 1 |
| NS(=O)(=O)c1cc(C(=O)O)c(NCc2ccco2)cc1Cl [Furosemide] | 0.744 |
| N=C(N)NC(=O)c1nc(Cl)c(N)nc1N [Amiloride hydrochloride dihydrate] | 1.11 |
| CC(C)(C)C(=O)OCOC(=O)[C@@H]1N2C(=O)[C@@H](NC(=O)[C@H](N)c3ccccc3)[C@H]2SC1(C)C [Pivampicillin] | 0.82 |
| O=C1NCN(c2ccccc2)C12CCN(CCCC(c1ccc(F)cc1)c1ccc(F)cc1)CC2 [Fluspirilen] | 0.944 |
| CCCCOC(=O)c1ccc(N)cc1 [Butamben] | 1.05 |
| COc1cc(Cc2cnc(N)nc2N)cc(OC)c1OC [Trimethoprim] | 0.674 |
| CCN(CC)CCOC(=O)C(c1ccccc1)C1CCCCC1 (stereo unspecified) [Drofenine hydrochloride] | 0.791 |
| CCCCC(CC)CN1CN(CC(CC)CCCC)CC(C)(N)C1 (stereo unspecified) [Hexetidine] | 1.6 |
| CC(=O)c1ccc2c(c1)N(CCCN1CCC(CCO)CC1)c1ccccc1S2 [Piperacetazine] | 0.698 |
| CO[C@@]1(NC(=O)Cc2cccs2)C(=O)N2C(C(=O)O)=C(COC(N)=O)CS[C@@H]21 [Cefoxitin sodium salt] | 1.01 |
| O=C(CCCN1CCC(O)(c2ccc(Br)cc2)CC1)c1ccc(F)cc1 [Bromperidol] | 1.29 |
| C=C[C@H]1CN2CC[C@H]1C[C@@H]2[C@@H](O)c1ccnc2ccc(OC)cc12 [Quinidine hydrochloride monohydrate] | 1.14 |
| C[C@]12CC[C@H]3C(=CCc4cc(O)ccc43)[C@@H]1CCC2=O [Equilin] | 0.572 |
| Cc1ncc([N+](=O)[O-])n1CC(O)CCl (stereo unspecified) [Ornidazole] | 1.05 |
| CN1C(C(=O)Nc2ccccn2)=C(O)c2sccc2S1(=O)=O [Tenoxicam] | 1 |
| COc1cc(/C=C/C(=O)N2CCC=CC2=O)cc(OC)c1OC [Piperlongumine] | 1.19 |
| Cc1[nH]c(=O)c(C#N)cc1-c1ccncc1 [Milrinone] | 0.736 |
| CN(C)CCC=C1c2ccccc2CCc2ccccc21 [Amitryptiline hydrochloride] | 1.4 |

Ordered by molar mass (rising): some entries from above

| SMILES | % Pdx1+ Ins1-low |
| --- | --- |
| NS(=O)(=O)c1cc(C(=O)O)c(NCc2ccco2)cc1Cl [Furosemide] | 0.744 |
| CC(C)(C)C(=O)OCOC(=O)[C@@H]1N2C(=O)[C@@H](NC(=O)[C@H](N)c3ccccc3)[C@H]2SC1(C)C [Pivampicillin] | 0.82 |
| O=C1NCN(c2ccccc2)C12CCN(CCCC(c1ccc(F)cc1)c1ccc(F)cc1)CC2 [Fluspirilen] | 0.944 |

Next structures follow.

| SMILES | % Pdx1+ Ins1-low |
| --- | --- |
| Cn1c(=O)c2[nH]cnc2n(C)c1=O [Aminophylline] | 1.32 |
| CC(C)(Oc1ccc(Cl)cc1)C(=O)O [Clofibric acid] | 1.02 |
| CN(C)CC/C=C1\c2ccccc2CSc2ccccc21 [Dosulepin hydrochloride] | 1.55 |
| Cc1cc(C(=O)NNCc2ccccc2)no1 [Isocarboxazid] | 1.35 |
| COc1ccc(-c2ccc(=N)n(CCCC(=O)O)n2)cc1 [Gabazine] | 0.727 |
| CO[C@H]1C[C@H](O[C@H]2[C@H](C)[C@@H](O[C@@H]3O[C@H](C)C[C@H](N(C)C)[C@H]3OC(C)=O)[C@@H](C)C[C@@]3(CO3)C(=O)[C@H](C)[C@@H](OC(C)=O)[C@@H](C)[C@@H](C)OC(=O)[C@@H]2C)O[C@@H](C)[C@@H]1OC(C)=O [Troleandomycin] | 0.715 |
| CCCN(CCC)C(=O)C(CCC(=O)O)NC(=O)c1ccccc1 (stereo unspecified) [Proglumide] | 1.12 |
| COc1ccc2c(c1)N(C[C@H](C)CN(C)C)c1ccccc1S2 [Methotrimeprazine maleat salt] | 0.996 |
| CN1CCCC(CC2c3ccccc3Sc3ccccc32)C1 (stereo unspecified) [Metixene hydrochloride] | 1.52 |
| COc1ccccc1N1CCN(CC(O)COc2cccc3ccccc23)CC1 (stereo unspecified) [Naftopidil dihydrochloride] | 0.818 |
| CN1CCC(=C2c3ccccc3CC(=O)c3sccc32)CC1 [Ketotifen fumarate] | 0.983 |
| CCN1C(=O)NC(c2ccccc2)C1=O (stereo unspecified) [Ethotoin] | 0.869 |
| CC[C@@H](CC[C@@H](C)[C@H]1CC[C@H]2[C@@H]3CCC4C[C@@H](O)CC[C@]4(C)[C@H]3CC[C@]12C)C(C)C (stereo partly drawn) [Beta-sistosterol] | 0.995 |
| COc1cc(OC)c(C(=O)CCCN2CCCC2)c(OC)c1 [Buflomedil hydrochloride] | 0.966 |
| Nc1c(Br)cc(Br)cc1CN[C@H]1CC[C@H](O)CC1 [Ambroxol hydrochloride] | 1.05 |
| Cn1ccnc1S [Methimazole] | 1 |
| CC(C)(Sc1cc(C(C)(C)C)c(O)c(C(C)(C)C)c1)Sc1cc(C(C)(C)C)c(O)c(C(C)(C)C)c1 [Probucol] | 0.974 |
| CCN[C@H]1C[C@H](C)S(=O)(=O)c2sc(S(N)(=O)=O)cc21 [Dorzolamide hydrochloride] | 0.853 |
| CC(C)/N=c1\cc2n(-c3ccc(Cl)cc3)c3ccccc3nc-2cc1Nc1ccc(Cl)cc1 [Clofazimine] | 1.08 |
| CC(=O)N(O)CCCCCNC(=O)CCC(=O)N(O)CCCCCNC(=O)CCC(=O)N(O)CCCCCN [Deferoxamine mesylate] | 0.841 |
| CC(C)(C(=O)c1cccnc1)c1cccnc1 [Metyrapone] | 0.869 |
| O=c1cc(-c2ccc(O)c(O)c2)oc2cc(O)cc(O)c12 [Luteolin] | 0.809 |
| CN1CCc2cccc3c2[C@H]1Cc1ccc(O)c(O)c1-3 [R(-) Apomorphine hydrochloride hemihydrate] | 1.2 |
